# According to PubChem BioAssay AID2685 (National Center for Advancing Translational Sciences (NCATS), 2010):
# The list shows a part of the results. Further columns of the screen follow, without active or inactive calls. The list favours compounds with an active or inconclusive main result. Words in brackets tell the shape of the fitted curve; partial curves, single points and poor fits give uncertain potencies.
# Test: qHTS Assay for Lipid Storage Modulators in Drosophila S3 Cells;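 as to cell number change: cells counted by Cell Tracker Red CMTPX staining in the red channel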
# Details: BODIPY lipid droplet fluorescence, 18-24 h; for cell number change: measured here: cell count max response, cells fed with added oleic acid
# How it was run: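 Drosophila S3 cells got compounds at several concentrations plus oleic acid (400 uM solution). Laser-scanning cytometry with 488 nm excitation read lipid droplets at 500-530 nm and cells at 575-640 nm. Percent activity was relative to 20 uM Triacsin C.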
# [1] = measured here: cell number channel AC50, cells fed with added oleic acid
# [2] = measured here: lipid fluorescence (Fed channel) AC50, cells fed with added oleic acid
smiles,measurement,setting,value
CN(C)CCCNCC(=O)Nc1ccc(Cl)cc1C(=O)c1ccccc1,cell number change,,19.2%
C=CCn1c(O)c(C(C)=NCCCn2ccnc2)c(=O)[nH]c1=O,cell number change,,23.2%
O=C(NC(C(Cl)Cl)N1CCOCC1)c1ccccc1 (stereo not drawn),cell number change,,30.8%
same,AC50,[1],"32.6 µM [rising, single point]"
O=c1cccc2n1CC1CC2CN(S(=O)(=O)c2cc(Cl)ccc2Cl)C1 (stereo not drawn),AC50,[1],"6.51 µM [rising, single point]"
same,AC50,[2],"0.231 µM [rising, single point]"
Cc1cc(S(=O)(=O)NCC(C)C)ccc1OCC(=O)N1CCN(Cc2ccccc2)CC1,cell number change,,-21.8%
same,AC50,[2],"16.4 µM [falling, single point]"
Clc1cccc(CNCCc2c[nH]c3ccccc23)c1,cell number change,,-35.2%
same,AC50,[1],"29.1 µM [falling, single point]"
CCOC(=O)N(c1ccccc1)P1(=S)OCC(C)O1 (stereo not drawn),cell number change,,-6.09%
same,AC50,[1],"0.00517 µM [falling, full curve, poor fit]"
Cc1cc(Cc2ccc(N)c(C)c2)ccc1N,AC50,[1],"0.00517 µM [rising, full curve, poor fit]"
Cc1nn(Cc2ccccc2)c(C)c1C(=O)OCC(=O)Nc1cc(S(C)(=O)=O)ccc1Cl,cell number change,,25.8%
same,AC50,[2],"29.1 µM [rising, single point]"
COC(=O)C1=C(c2cccc(OCc3ccccc3)c2)C[C@@H]2CC[C@H]1N2C(=O)NCCCc1ccccc1,cell number change,,2.76%
same,AC50,[1],"1.84 µM [rising, partial curve, poor fit]"
CC[n+]1c(SC)ccc2cc(OC)ccc21,AC50,[1],"1.03 µM [rising, full curve]"
same,AC50,[2],"5.8 µM [rising, single point]"
CCOc1cc2c(cc1OCC)-n1cccc1C(c1cc(C)c(OC)cc1C)NC2 (stereo not drawn),cell number change,,16.7%
same,AC50,[1],"1.84 µM [rising, partial curve]"
same,AC50,[2],"13 µM [falling, partial curve]"
Cc1ccc(S(=O)(=O)N(C)C/N=C(\N)N[N+](=O)[O-])cc1,cell number change,,-14.9%
same,AC50,[2],"0.461 µM [falling, full curve]"
COC(=O)C1=Nc2ccccc2/C1=C\c1c(O)n(-c2ccc(OC)cc2)c(=O)[nH]c1=O,cell number change,,-24.9%
same,AC50,[2],"6.51 µM [falling, single point]"
Cc1ccc(-n2c(C)cc(/C=C3/C(=O)NC(=O)N(C)C3=O)c2C)cc1,cell number change,,-40.4%
same,AC50,[1],"29.1 µM [falling, single point]"
CN(C)C(=O)Oc1ccc2c(c1)O/C(=C\c1cccc([N+](=O)[O-])c1)C2=O,AC50,[1],"0.58 µM [rising, single point]"
C1CCC2CCCCC2C1 (stereo not drawn),cell number change,,8.41%
same,AC50,[1],"0.13 µM [falling, single point]"
Cc1c(N=Nc2c(O)n(-c3ccc(Br)cc3)c(=O)[nH]c2=O)c(=O)n(-c2ccccc2)n1C,cell number change,,33%
same,AC50,[1],"23.1 µM [rising, single point]"
CN1C(=O)NC(=O)/C(=C\C=C\c2ccccc2[N+](=O)[O-])C1=O,cell number change,,-60.5%
same,AC50,[1],"23.1 µM [falling, single point]"
same,AC50,[2],"20.6 µM [falling, single point]"
COC(=O)C1=C(c2ccc(OC(F)(F)F)cc2)C[C@@H]2CC[C@H]1N2C(=O)N1CCCCC1,cell number change,,-7.31%
same,AC50,[1],"6.51 µM [falling, single point]"
same,AC50,[2],"3.26 µM [falling, single point]"
CC1(CCl)CN1S(=O)(=O)c1ccccc1 (stereo not drawn),cell number change,,-37.8%
same,AC50,[1],"6.51 µM [falling, full curve]"
COc1cc(/C=C/[N+](=O)[O-])ccc1O,cell number change,,-52%
same,AC50,[1],"13 µM [falling, partial curve]"
same,AC50,[2],"5.8 µM [falling, full curve]"
CN1CCC(N2CC3CC(C2)c2cccc(=O)n2C3)CC1 (stereo not drawn),cell number change,,-19.2%
same,AC50,[2],"32.6 µM [falling, single point]"
O=C(O)c1ccc(NC(=O)N2C[C@H]3C[C@@H](C2)c2cccc(=O)n2C3)cc1,cell number change,,30.6%
same,AC50,[1],"13 µM [rising, partial curve]"
CCCCCCC[n+]1ccc(-c2cc[n+](CCCCCCC)cc2)cc1,cell number change,,-36%
same,AC50,[1],"20.6 µM [falling, single point]"
same,AC50,[2],"25.9 µM [falling, single point]"
O=c1[nH]c(=S)n(-c2ccc(Cl)cc2)c(O)c1/C=N/N1CCOCC1,cell number change,,-34.8%
same,AC50,[1],"29.1 µM [falling, single point]"
same,AC50,[2],"32.6 µM [falling, single point]"
COc1ccc(CNC(=O)Cn2c(=O)oc3cc(S(=O)(=O)N4CCCC4)ccc32)cc1,AC50,[1],"4.11 µM [falling, full curve, poor fit]"
Cc1ccc(/C=C2\C(=O)NC(=S)N(c3ccc(F)cc3)C2=O)o1,cell number change,,31.1%
same,AC50,[1],"32.6 µM [rising, single point]"
same,AC50,[2],"29.1 µM [rising, single point]"

# An excerpt of these results, with tabs.
smiles	measurement	setting	value
O=c1cccc2n1CC1CC2CN(S(=O)(=O)c2cc(Cl)ccc2Cl)C1 (stereo not drawn)	AC50	[1]	6.51 µM [rising, single point]
CN(C)C(=O)Oc1ccc2c(c1)O/C(=C\c1cccc([N+](=O)[O-])c1)C2=O	AC50	[1]	0.58 µM [rising, single point]
COc1cc(/C=C/[N+](=O)[O-])ccc1O	AC50	[2]	5.8 µM [falling, full curve]
